According to article PMC3261198, “Mitochondrial Apoptosis and FAK Signaling Disruption by a Novel Histone Deacetylase Inhibitor, HTPB, in Antitumor and Antimetastatic Mouse Models” (PLoS ONE, 2012):
pIC50: −log10 of the molar value.

Columns and labels:
[1] = tested on: A549 cells; assay: cells; settings: Homo sapiens, A549, 48 h, read-out: IC50 (cytotoxicity)
[2] = tested on: H1299 cells; assay: cells; settings: Homo sapiens, NCI-H1299, 48 h, read-out: IC50 (cytotoxicity)

With `O=C(CCCCCCC(=O)Nc1ccccc1)NO` [SAHA, suberoylanilide hydroxamic acid, reference compound] as the molecule, how does the pIC50 [1] read?
Its pIC50 is 5.72.

What about the pIC50 [2] of the same molecule?
Its pIC50 is 5.34.
